Results published in US20100196311A1, “METHODS AND COMPOSITIONS CONTAINING mTOR INHIBITORS FOR ENHANCING IMMUNE RESPONSES” (priority 2009, published 2010).
At least one compound was matched to its structure with a doubt left.

What was measured:
MOSEC ovarian tumor = experiment: Immunization of mice bearing established ovarian tumor (MOSEC), survival; assay type: in vivo, mouse; details: rapamycin added to fowlpox (Tricom) OVA immunization; day 20 tumors
thymoma = experiment: Prophylactic immunization, thymoma challenge at day 40; assay type: in vivo, mouse; details: rapamycin daily for seven days after immunization
EG.7 thymoma = experiment: Immunization of thymoma (EG.7) bearing mice, survival; details: rapamycin combined with vaccination

For `CO[C@H]1C[C@@H]2CC[C@@H](C)[C@@](O)(O2)C(=O)C(=O)N2CCCC[C@H]2C(=O)O[C@H]([C@H](C)C[C@@H]2CC[C@@H](O)[C@H](OC)C2)CC(=O)[C@H](C)/C=C(\C)[C@@H](O)[C@@H](OC)C(=O)[C@H](C)C[C@H](C)/C=C/C=C/C=C/1C` [rapamycin], the “Immunization mediated survival of tumor bearing mice” value (MOSEC ovarian tumor) was “profound enhancing effect”, the “Survival of viral immunized mice challenged by syngeneic tumor after 40 days” value (thymoma) was “significantly enhances” and the “Survival of tumor bearing mice” value (EG.7 thymoma) was “significantly enhance”.
